Laboratory results as given in patent US9688613B2 (Jiva Pharma, Inc., priority 2015, dated 2017).

Tested on: GABA-A receptors
Test: Displacement of [3H] muscimol from GABA-A receptors
Assay type: binding
Procedure: Muscimol is the principal psychoactive constituent of Amanita muscaria and related species of mushroom.
These tests were performed using the procedure described by Tomasz Plech et. al., Studies on anticonvulsant activity of 4-alkyl-1,2,4-triazole-3-thiones and their effect on GABAergic system; European J. of Medicinal Chem. 2014, 86, 690-699.

**Q.** Which results are given for `NCCCC(=O)O` [GABA, γ-aminobutyric acid, reference compound]?
**A.** % of [3H]-MUSCIMOL inhibition (LOG OF MOLAR CONC. −4): 100%; % of [3H]-MUSCIMOL inhibition (LOG OF MOLAR CONC. −5): 94%
